# The other results are listed elsewhere or left out. Many values rest on one well or one pass, so single values are uncertain.
# System: Trypanosoma brucei brucei bloodstream form L262P (kDNA-independent)
# Assay: viability Z-score (nuclei count per well, median-polish normalised, relative to plate distribution); higher = more viable parasites (negative = growth inhibition)
# Details: 4 days; compound concentration: 10 µM (some Prestwick/PKE rows may be 1 µM / not distinguished)
row,Compound,viability Z-score
1,O=c1[nH]c(NC2CCCCC2)c([N+](=O)[O-])c(=O)[nH]1,-5.53
2,CN(C)CCCn1cc(C2=C(c3c[nH]c4ccccc34)C(=O)NC2=O)c2ccccc21,-3.71
3,O=C2C=1N(CCC)C(=NC=1N(C)C(=O)N2C)[S]CC(=O)N3CCC([H])(CC3)C/C4=C/C=CC=C4,-2.37
4,[F]C([F])([F])C1=NC(=N/C=C1/C2=N/N=NN2/C3=C/C=C(/[F])C=C3)C=4[S]C=CC=4,-2.78
5,[O-][N+](=O)C1=CC=C(C=C1)C(=O)N[C@]3([H])CCN(CC(=O)N[C@]2([H])CCCC[C@]2(C)[H])CC3,-5.26
